From US20210130409 (published 2021)

Assay: general procedure: Fmoc solid-phase peptide synthesis; 2-chlorotrityl chloride resin
[1] = whole synthesis, UPLC (Aquity, CSH C18), UV 215 nm/254 nm

| Substance | crude HPLC purity (whole synthesis, HPLC area %) | crude HPLC purity [1] | crude purity (method not given) [1] | final HPLC purity [1] | crude yield (whole synthesis, overall USP yield from Boc-Orn(Fmoc)-OH) | crude yield (whole synthesis, scale 100 g) | crude yield (whole synthesis, scale 200 g) | crude purity (method not given) (late stage modification step, UPLC (Aquity, CSH C18), UV 215 nm/254 nm) |
| --- | --- | --- | --- | --- | --- | --- | --- | --- |
| HCin-[Orn-Pro-D-Cha-Trp-Arg] | 83.76% | 84% | 63.7% | 99.75% | 24% | approximately 36% | approximately 50% | – |
| HCin[Orn-Pro-D-Cha-Trp(Boc)-Arg(Pbf)] | – | – | – | – | – | – | – | 71.9% |
